# Paper doi:10.1101/2025.11.26.690573
# By UniProt entry, the sequences of proteins in these tests, tags left out.
# UniProt P61201: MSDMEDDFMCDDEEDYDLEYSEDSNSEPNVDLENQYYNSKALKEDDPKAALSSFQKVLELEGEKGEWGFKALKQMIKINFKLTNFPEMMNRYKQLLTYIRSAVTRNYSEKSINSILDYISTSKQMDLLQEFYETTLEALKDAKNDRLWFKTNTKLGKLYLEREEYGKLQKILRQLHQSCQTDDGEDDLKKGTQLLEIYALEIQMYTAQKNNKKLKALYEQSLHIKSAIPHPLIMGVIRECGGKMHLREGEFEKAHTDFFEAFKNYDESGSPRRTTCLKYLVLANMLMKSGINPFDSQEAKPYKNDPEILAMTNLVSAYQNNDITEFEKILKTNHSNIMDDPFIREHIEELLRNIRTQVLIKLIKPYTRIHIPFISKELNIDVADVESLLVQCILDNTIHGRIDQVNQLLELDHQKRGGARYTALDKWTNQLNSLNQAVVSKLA
# UniProt Q93034: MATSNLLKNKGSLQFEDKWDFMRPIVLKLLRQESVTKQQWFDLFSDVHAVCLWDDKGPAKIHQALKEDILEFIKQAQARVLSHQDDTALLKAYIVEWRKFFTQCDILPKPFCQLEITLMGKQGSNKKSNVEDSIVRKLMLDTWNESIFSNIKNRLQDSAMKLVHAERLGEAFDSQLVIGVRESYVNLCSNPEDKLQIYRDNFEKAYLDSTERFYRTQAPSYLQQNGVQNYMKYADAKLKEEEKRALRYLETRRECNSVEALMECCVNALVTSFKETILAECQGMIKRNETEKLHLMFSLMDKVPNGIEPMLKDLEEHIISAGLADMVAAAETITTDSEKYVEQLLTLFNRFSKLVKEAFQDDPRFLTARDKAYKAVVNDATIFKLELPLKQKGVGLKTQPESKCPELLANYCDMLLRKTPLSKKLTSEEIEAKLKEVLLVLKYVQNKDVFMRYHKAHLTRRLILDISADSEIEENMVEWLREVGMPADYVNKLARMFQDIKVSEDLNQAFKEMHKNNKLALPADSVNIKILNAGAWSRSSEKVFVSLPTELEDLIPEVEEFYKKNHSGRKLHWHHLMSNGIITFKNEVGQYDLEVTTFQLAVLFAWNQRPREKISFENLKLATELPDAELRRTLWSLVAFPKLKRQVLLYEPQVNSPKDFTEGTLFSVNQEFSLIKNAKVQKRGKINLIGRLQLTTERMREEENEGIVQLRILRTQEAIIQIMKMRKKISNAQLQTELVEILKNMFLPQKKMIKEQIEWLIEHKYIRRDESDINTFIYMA
# UniProt Q92466: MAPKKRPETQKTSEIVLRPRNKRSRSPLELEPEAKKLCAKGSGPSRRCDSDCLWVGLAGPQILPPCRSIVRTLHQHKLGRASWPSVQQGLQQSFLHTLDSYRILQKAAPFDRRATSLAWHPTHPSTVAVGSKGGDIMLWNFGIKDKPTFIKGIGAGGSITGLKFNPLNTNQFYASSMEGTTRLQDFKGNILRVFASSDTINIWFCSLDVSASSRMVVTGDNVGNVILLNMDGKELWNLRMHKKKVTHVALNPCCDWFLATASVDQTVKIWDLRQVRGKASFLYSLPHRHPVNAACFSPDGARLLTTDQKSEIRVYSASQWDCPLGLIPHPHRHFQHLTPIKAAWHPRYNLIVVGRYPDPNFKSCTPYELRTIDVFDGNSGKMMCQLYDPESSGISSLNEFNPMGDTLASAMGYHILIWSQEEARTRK
# No constants are given. Whether binding was seen depends on the method and setting. For some assays here: Binding seen in cells or lysates may run through a third protein. Some results given as binding are weak or reduced against the parent protein; the word gives no strength.
# What was measured:
# [1] = molecular target: CSN5^DM, CSN5 E76A/D151N (human) (UniProt Q92905); experiment: cryo-EM structure; N8~CRLs (CRL1, CRL2, CRL3, CRL4A, CRL5) mixed with CSN^DM at a 3:1 ratio, 30 minutes on ice, about 4.5 mg/ml; both purified
# [2] = molecular target: HBTH-tagged CSN2 (human) (UniProt P61201); experiment: pull-down; affinity purified HBTH-CSN2 complexes (streptavidin resin) from cells with or without CSN5i-3, immunoblotting
binding [1],binding [2],Substance
binds,,CUL5 (from UniProt Q93034 1-780)
,binds,DDB2 (from UniProt Q92466 1-427)
